Laboratory results published in patent US20090221683A1, “Combination of CXCR4 Antagonist and Morphogen to Increase Angiogenesis” (Caritas St.Elizabeth Medical Center of Boston, Inc, priority 2005, published 2009).
Where two headings read alike, the source gives them in different places.

Test system: FVB mice with myocardial infarction
Settings: for HR (heart rate): mean ± SE
Method: Eight-week old male FVB mice were anesthetized with sodium pentobarbital (50 mg/kg IP). The animals were intubated orally with a 22G IV catheter and artificially ventilated with a respirator (Harvard Apparatus). A left intercostal thoracotomy was performed and the ribs were retracted with 5-0 polypropylene sutures. After the pericardium was opened, the left anterior descending (LAD) branch of the left coronary artery was ligated proximal to the bifurcation between the LAD and the diagonal branch using 8-0 polypropylene sutures and visualized with a dissecting microscope. Positive end-expiratory pressure was applied to fully inflate the lungs, and the chest was closed with 7-0 polypropylene sutures. […] After physiological assessment at one, two and four weeks after MI, a subgroup of the mice were euthanized by intravenous administration of a lethal dose of pentobarbital.
Transthoracic echocardiography (SONOS 5500, Hewlett Packard) was performed just before MI and one, two and four weeks after MI. Left ventricular diastolic (LVDd) and systolic (LVDs) dimensions and fractional shortening were measured at the mid-papillary muscle level. Hemodynamic measurements were obtained at two and four weeks after MI using a 1.0-French high-fidelity pressure catheter (Millar Instruments, Houston, Tex.) via the left carotid artery. LV systolic pressure and maximal positive (+dP/dt) and negative (−dP/dt) pressure development were recorded after stabilization of LV function and heart rate. Such methods can be used for study of the compositions and methods of the instant invention.

## c1cc(CN2CCCNCCNCCCNCC2)ccc1CN1CCCNCCNCCCNCC1 [AMD-3100, 1,1′-[1,4-phenylene-bis(methylene)]-bis-1,4,8,11-tetraazacyclotetradecane]
1 week after MI
  HR (heart rate): 494 ± 24 bpm
2 weeks after MI
  HR (heart rate): 515 ± 16 bpm
4 weeks after MI
  HR (heart rate): 473 ± 26 bpm
Before MI (baseline)
  HR (heart rate): 510 ± 26 bpm
After MI
  difference in heart rate between AMD and control groups: no significant difference
